# Source: paper doi:10.1101/089201
# Protein sequences, listed by entry. Tags and fused reporters are not part of them.
# UniProt Q80TZ9, whole entry: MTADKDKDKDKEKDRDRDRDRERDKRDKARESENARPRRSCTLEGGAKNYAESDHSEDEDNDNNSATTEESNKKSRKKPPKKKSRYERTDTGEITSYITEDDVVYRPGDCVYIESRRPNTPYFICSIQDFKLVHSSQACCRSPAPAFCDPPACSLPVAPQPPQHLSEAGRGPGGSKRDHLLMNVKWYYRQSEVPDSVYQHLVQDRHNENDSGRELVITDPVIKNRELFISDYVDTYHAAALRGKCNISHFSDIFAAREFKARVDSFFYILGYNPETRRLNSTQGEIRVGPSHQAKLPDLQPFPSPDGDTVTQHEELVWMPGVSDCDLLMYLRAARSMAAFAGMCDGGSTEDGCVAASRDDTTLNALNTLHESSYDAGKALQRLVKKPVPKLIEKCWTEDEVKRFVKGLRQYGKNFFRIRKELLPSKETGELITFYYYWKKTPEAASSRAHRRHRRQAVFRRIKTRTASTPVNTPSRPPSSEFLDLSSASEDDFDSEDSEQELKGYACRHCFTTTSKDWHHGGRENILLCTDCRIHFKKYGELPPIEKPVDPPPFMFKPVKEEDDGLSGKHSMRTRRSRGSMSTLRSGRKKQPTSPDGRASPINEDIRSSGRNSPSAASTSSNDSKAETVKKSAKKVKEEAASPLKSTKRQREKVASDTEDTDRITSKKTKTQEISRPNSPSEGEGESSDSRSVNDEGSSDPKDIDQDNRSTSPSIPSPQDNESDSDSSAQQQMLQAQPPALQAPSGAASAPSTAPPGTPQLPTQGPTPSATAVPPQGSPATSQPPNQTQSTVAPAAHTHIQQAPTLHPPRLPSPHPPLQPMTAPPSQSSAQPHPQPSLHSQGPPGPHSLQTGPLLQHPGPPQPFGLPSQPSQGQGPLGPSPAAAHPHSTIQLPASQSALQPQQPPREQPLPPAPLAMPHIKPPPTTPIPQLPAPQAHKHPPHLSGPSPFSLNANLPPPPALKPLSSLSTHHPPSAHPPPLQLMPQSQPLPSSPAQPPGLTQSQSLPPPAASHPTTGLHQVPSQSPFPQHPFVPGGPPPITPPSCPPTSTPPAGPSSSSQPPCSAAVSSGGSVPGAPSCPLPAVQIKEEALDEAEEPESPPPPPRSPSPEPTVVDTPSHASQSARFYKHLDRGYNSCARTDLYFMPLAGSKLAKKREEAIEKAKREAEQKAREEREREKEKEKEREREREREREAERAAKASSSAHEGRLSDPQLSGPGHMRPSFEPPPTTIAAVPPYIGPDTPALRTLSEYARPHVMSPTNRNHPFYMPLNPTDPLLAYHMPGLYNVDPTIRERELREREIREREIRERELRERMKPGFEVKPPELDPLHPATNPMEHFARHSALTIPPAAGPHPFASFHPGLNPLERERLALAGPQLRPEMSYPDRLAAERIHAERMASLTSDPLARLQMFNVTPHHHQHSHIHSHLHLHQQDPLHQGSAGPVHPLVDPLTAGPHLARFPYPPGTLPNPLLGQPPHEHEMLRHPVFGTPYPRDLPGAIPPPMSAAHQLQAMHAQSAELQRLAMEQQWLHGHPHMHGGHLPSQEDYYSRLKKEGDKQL
# UniProt O09106, whole entry: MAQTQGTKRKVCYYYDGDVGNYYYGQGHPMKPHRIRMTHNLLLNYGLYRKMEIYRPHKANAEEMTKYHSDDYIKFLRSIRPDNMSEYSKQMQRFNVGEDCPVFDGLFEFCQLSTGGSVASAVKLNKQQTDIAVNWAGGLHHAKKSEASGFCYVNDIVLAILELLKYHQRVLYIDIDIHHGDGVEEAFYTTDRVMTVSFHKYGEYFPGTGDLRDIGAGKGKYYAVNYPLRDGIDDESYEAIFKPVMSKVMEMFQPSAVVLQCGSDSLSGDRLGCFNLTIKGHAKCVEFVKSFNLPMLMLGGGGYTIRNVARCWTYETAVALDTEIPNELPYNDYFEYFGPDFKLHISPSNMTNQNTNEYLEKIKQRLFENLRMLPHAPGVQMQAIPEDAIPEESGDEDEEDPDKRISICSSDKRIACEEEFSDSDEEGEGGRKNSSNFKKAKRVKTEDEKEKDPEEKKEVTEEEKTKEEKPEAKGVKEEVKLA
# UniProt P70288, whole entry: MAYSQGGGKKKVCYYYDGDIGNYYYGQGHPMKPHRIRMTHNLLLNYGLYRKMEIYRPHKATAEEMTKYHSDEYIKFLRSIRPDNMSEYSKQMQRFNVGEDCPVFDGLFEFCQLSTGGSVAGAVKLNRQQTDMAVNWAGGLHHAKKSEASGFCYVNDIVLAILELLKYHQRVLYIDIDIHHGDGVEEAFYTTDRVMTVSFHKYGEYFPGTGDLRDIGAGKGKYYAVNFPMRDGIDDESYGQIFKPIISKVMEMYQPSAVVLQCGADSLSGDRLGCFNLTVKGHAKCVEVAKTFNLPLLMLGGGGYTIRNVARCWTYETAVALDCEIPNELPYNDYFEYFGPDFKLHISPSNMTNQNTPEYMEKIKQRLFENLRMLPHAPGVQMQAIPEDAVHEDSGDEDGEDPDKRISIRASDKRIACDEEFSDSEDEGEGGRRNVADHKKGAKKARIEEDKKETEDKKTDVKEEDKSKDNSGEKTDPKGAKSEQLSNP
# Results are given in words; binding and its absence hold for the method and conditions named. For some of these results: Binding seen in cells or lysates may run through a third protein. Some binding calls cover weakened binding; strength is not graded here.
# Columns and labels:
# Rere-Flag = Rere-Flag (UniProt Q80TZ9); assay: SEC
# [1] = target: endogenous Rere (mouse (endogenous in NIH3T3)) (UniProt Q80TZ9); assay: co-IP
# Rere-HA = Rere-HA (UniProt Q80TZ9); assay: co-IP
# Flag-Hdac1 = Flag-Hdac1 (UniProt O09106); assay: co-IP
Molecule,binding (Rere-Flag),binding [1],binding (Rere-HA),binding (Flag-Hdac1)
Flag-Hdac1 (from UniProt O09106 1-482),binds,,,
Hdac2 (from UniProt P70288 1-488),,binds,binds,
Flag-Hdac2 (from UniProt P70288 1-488),binds,,,
Hdac1 (from UniProt O09106 1-482),,binds,binds,
"endogenous Rarα (receptor, UniProt P11416 1-462) MASNSSSCPTPGGGHLNGYPVPPYAFFFPPMLGGLSPPGALTSLQHQLPVSGYSTPSPATIETQSSSSEEIVPSPPSPPPLPRIYKPCFVCQDKSSGYHYGVSACEGCKGFFRRSIQKNMVYTCHRDKNCIINKVTRNRCQYCRLQKCFDVGMSKESVRNDRNKKKKEAPKPECSESYTLTPEVGELIEKVRKAHQETFPALCQLGKYTTNNSSEQRVSLDIDLWDKFSELSTKCIIKTVEFAKQLPGFTTLTIADQITLLKAACLDILILRICTRYTPEQDTMTFSDGLTLNRTQMHNAGFGPLTDLVFAFANQLLPLEMDDAETGLLSAICLICGDRQDLEQPDKVDMLQEPLLEALKVYVRKRRPSRPHMFPKMLMKITDLRSISAKGAERVITLKMEIPGSMPPLIQEMLENSEGLDTLSGQSGGGTRDGGGLAPPPGSCSPSLSPSSHRSSPATQSP",,,,binds
